Reference: patent US20250177530A1, “MOLECULES THAT BIND TO ENPP1 POLYPEPTIDES” (UNIVERSITY OF PITTSBURGH - OF THE COMMONWEALTH SYSTEM OF …, priority 2022, published 2025)

Tested on: transduced T cells
Assay: CAR expression on transduced T cells by flow cytometry
Format: cell-based, human

B1: CAR 3G12: 2nd generation anti-ENPP1 CAR: scFv 3G12 (SEQ ID NO:291) plus CAR chain SEQ ID NO:292 (CD8a, 4-1BB, CD3zeta) (protein)
chain: DIQMTQSPSSLSASVGDRVTITCRASQSISSYLNWYQQKPGKAPKLLIYAASSLQSGVPSRFSGSGSGTDFTLTISSLQPEDVAVYYCQQYYTSRITFGQGTKLEIKGGGGSGGGGSGGGGSQVQLVESGGGLVKPGGSLRLSCAASGFTFSDYYMSWIRQAPGKGLEWVSYISSSGSTIYYADSVKGRFTISRDNAKNSLYLQMNSLRAEDTAVYYCAREVYYYDSSGYYTYYFDYWGQGTLVTVSSGQAGRTTTPAPRPPTPAPTIASQPLSLRPEACRPAAGGAVHTRGLDFACDIYIWAPLAGTCGVLLLSLVITLYCKRGRKKLLYIFKQPFMRPVQTTQEEDGCSCRFPEEEEGGCELRVKFSRSADAPAYKQGQNQLYNELNLGRREEYDVLDKRRGRDPEMGGKPRRKNPQEGLYNELQKDKMAEAYSEIGMKGERRRGKGHDGLYQGLSTATKDTYDALHMQALPPR
Q: For B1, which CAR expression level (transduced CD4^+ T cells) is on record?
A: 33.4%

Q: And the CAR expression level (transduced CD8^+ T cells)?
A: 36.7%
